We go through five molecules from patent US20140038203A1, “METHODS FOR DETECTING OR PREDICTING KIDNEY DISEASE” (MUSC FOUNDATION FOR RESEARCH DEVELOPMENT, priority 2012, published 2014).

The data set can be described thus: RRT study: LC-MS/MS urinary proteomics, AKI after cardiac surgery, RRT vs No RRT. More on the design: species or system human. Particulars: for Up or Down: direction of urinary abundance; for Mean No RRT / Mean RRT: urine; for Mean No RRT: AKI patients who did not require RRT (n=6); for Mean RRT: AKI patients who required RRT (n=6).
Where [1] appears, read: RRT vs No RRT, positive = elevated in RRT group.
Where [2] appears, read: patients who did vs did not require RRT/dialysis.
Where [3] appears, read: patients who did vs did not require RRT/dialysis, read with the Up or Down column.

B1: Vitamin D-binding protein: urinary protein, Uniprot P02774 (protein, UniProt P02774 17-474, looked up)
Vitamin D-binding protein: LERGRDYEKNKVCKEFSHLGKEDFTSLSLVLYSRKFPSGTFEQVSQLVKEVVSLTEACCAEGADPDCYDTRTSALSAKSCESNSPFPVHPGTAECCTKEGLERKLCMAALKHQPQEFPTYVEPTNDEICEAFRKDPKEYANQFMWEYSTNYGQAPLSLLVSYTKSYLSMVGSCCTSASPTVCFLKERLQLKHLSLLTTLSNRVCSQYAAYGEKKSRLSNLIKLAQKVPTADLEDVLPLAEDITNILSKCCESASEDCMAKELPEHTVKLCDNLSTKNSKFEDCCQEKTAMDVFVCTYFMPAAQLPELPDVELPTNKDVCDPGNTKVMDKYTFELSRRTHLPEVFLSKVLEPTLKSLGECCDVEDSTTCFNAKGPLLKKELSSFIDKGQELCADYSENTFTEYKKKLAERLKAKLPDATPTELAKLVNKHSDFASNCCSINSPPLYCDSEIDAELKNIL
Consider B1, for which the “Mean No RRT” value is reported as 4.51 normalized spectral counts and the “Mean RRT” value was 54.58 normalized spectral counts. In addition, the “Mean Fold Change” value under setting [1] came out at 12.11. Moreover, the “Up or Down” value under setting [2] is “Up”. Also, under setting [3], the “Mean Fold Change” value is reported as 24.22.

B2: Coactosin-like protein: urinary protein, Uniprot Q14019 (protein, UniProt Q14019 2-142, looked up)
Coactosin-like protein: ATKIDKEACRAAYNLVRDDGSAVIWVTFKYDGSTIVPGEQGAEYQHFIQQCTDDVRLFAFVRFTTGDAMSKRSKFALITWIGENVSGLQRAKTGTDKTLVKEVVQNFAKEFVISDRKELEEDFIKSELKKAGGANYDAQTE
With B2, the “Mean RRT” value is recorded as 3.70 normalized spectral counts. For the same molecule, the “Up or Down” value under setting [2] is on record as “Up”.

B3: Brain acid soluble protein 1: urinary protein, Uniprot P80723 (protein, UniProt P80723 2-227, looked up)
Brain acid soluble protein 1: GGKLSKKKKGYNVNDEKAKEKDKKAEGAATEEEGTPKESEPQAAAEPAEAKEGKEKPDQDAEGKAEEKEGEKDAAAAKEEAPKAEPEKTEGAAEAKAEPPKAPEQEQAAPGPAAGGEAPKAAEAAAAPAESAAPAAGEEPSKEEGEPKKTEAPAAPAAQETKSDGAPASDSKPGSSEAAPSSKETPAATEAPSSTPKAQGPAASAEEPKPVEAPAANSDQTVTVKE
For the molecule B3, the “Mean No RRT” value was 0.87 normalized spectral counts and the “Mean RRT” value was 5.05 normalized spectral counts. In addition, the “Mean Fold Change” value under setting [1] stood at 5.823. In addition, under setting [2], the “Up or Down” value is on record as “Up”. In addition, under setting [3], the “Mean Fold Change” value worked out at 14.56.

B4: Phosphatidylethanolamine-binding pritein 1: urinary protein, Uniprot P30086 (protein, UniProt P30086 2-187, looked up)
Phosphatidylethanolamine-bindi …: PVDLSKWSGPLSLQEVDEQPQHPLHVTYAGAAVDELGKVLTPTQVKNRPTSISWDGLDSGKLYTLVLTDPDAPSRKDPKYREWHHFLVVNMKGNDISSGTVLSDYVGSGPPKGTGLHRYVWLVYEQDRPLKCDEPILSNRSGDHRGKFKVASFRKKYELRAPVAGTCYQAEWDDYVPKLYEQLSGK
As for B4, the “Mean RRT” value is reported as 5.90 normalized spectral counts.

B5: Cystatin-8: urinary protein, Uniprot P04080 (protein, UniProt P04080 1-98, looked up)
Cystatin-B: MMCGAPSATQPATAETQHIADQVRSQLEEKENKKFPVFKAVSFKSQVVAGTNYFIKVHVGDEDFVHLRVFQSLPHENKPLTLSNYQTNKAKHDELTYF
For the molecule B5, the “Mean No RRT” value is 0.43 normalized spectral counts and the “Mean RRT” value is 4.94 normalized spectral counts. Under setting [1], the “Mean Fold Change” value is listed as 11.53.
